Measured values from patent US6599878B2, “Superoxygenating blood substitutes based on hemoglobin and dihydropyidine compositions” (priority 1992, dated 2003).

Conditions: arterial plasma, n = 8

HbHD: Purified canine hemoglobin (10 gm %) used for isovolemic hemodilution
Epinephrine: 219 ± 14 pg/mL | Norepinephrine: 125 ± 12 pg/mL
